These are yes or no findings as the source states them, for the method shown. In cells and extracts the contact can be indirect. Here binding means that the protein was enriched with, or labelled near, the bait; the list need not be complete. Tags and fused reporters may be left off the sequences shown.
B1: AP3B1 (protein, UniProt O00203 1-1094)
chain: MSSNSFPYNEQSGGGEATELGQEATSTISPSGAFGLFSSDLKKNEDLKQMLESNKDSAKLDAMKRIVGMIAKGKNASELFPAVVKNVASKNIEIKKLVYVYLVRYAEEQQDLALLSISTFQRALKDPNQLIRASALRVLSSIRVPIIVPIMMLAIKEASADLSPYVRKNAAHAIQKLYSLDPEQKEMLIEVIEKLLKDKSTLVAGSVVMAFEEVCPDRIDLIHKNYRKLCNLLVDVEEWGQVVIIHMLTRYARTQFVSPWKEGDELEDNGKNFYESDDDQKEKTDKKKKPYTMDPDHRLLIRNTKPLLQSRNAAVVMAVAQLYWHISPKSEAGIISKSLVRLLRSNREVQYIVLQNIATMSIQRKGMFEPYLKSFYVRSTDPTMIKTLKLEILTNLANEANISTLLREFQTYVKSQDKQFAAATIQTIGRCATNILEVTDTCLNGLVCLLSNRDEIVVAESVVVIKKLLQMQPAQHGEIIKHMAKLLDSITVPVARASILWLIGENCERVPKIAPDVLRKMAKSFTSEDDLVKLQILNLGAKLYLTNSKQTKLLTQYILNLGKYDQNYDIRDRTRFIRQLIVPNVKSGALSKYAKKIFLAQKPAPLLESPFKDRDHFQLGTLSHTLNIKATGYLELSNWPEVAPDPSVRNVEVIELAKEWTPAGKAKQENSAKKFYSESEEEEDSSDSSSDSESESGSESGEQGESGEEGDSNEDSSEDSSSEQDSESGRESGLENKRTAKRNSKAKGKSDSEDGEKENEKSKTSDSSNDESSSIEDSSSDSESESEPESESESRRVTKEKEKKTKQDRTPLTKDVSLLDLDDFNPVSTPVALPTPALSPSLMADLEGLHLSTSSSVISVSTPAFVPTKTHVLLHRMSGKGLAAHYFFPRQPCIFGDKMVSIQITLNNTTDRKIENIHIGEKKLPIGMKMHVFNPIDSLEPEGSITVSMGIDFCDSTQTASFQLCTKDDCFNVNIQPPVGELLLPVAMSEKDFKKEQGVLTGMNETSAVIIAAPQNFTPSVIFQKVVNVANVGAVPSGQDNIHRFAAKTVHSGSLMLVTVELKEGSTAQLIINTEKTVIGSVLLRELKPVLSQG
B2: FNBP4 (protein, UniProt Q8N3X1 1-1017)
chain: MGKKSRAVPGRRPILQLSPPGPRGSTPGRDPEPEPDTEPDSTAAVPSQPAPSAATTTTTAVTAAAASDDSPSEDEQEAVQEVPRVVQNPPKPVMTTRPTAVKATGGLCLLGAYADSDDDDNDVSEKLAQSKETNGNQSTDIDSTLANFLAEIDAITAPQPAAPVGASAPPPTPPRPEPKEAATSTLSSSTSNGTDSTQTSGWQYDTQCSLAGVGIEMGDWQEVWDENTGCYYYWNTQTNEVTWELPQYLATQVQGLQHYQPSSVPGAETSFVVNTDIYSKEKTISVSSSKSGPVIAKREVKKEVNEGIQALSNSEEEKKGVAASLLAPLLPEGIKEEEERWRRKVICKEEPVSEVKETSTTVEEATTIVKPQEIMLDNIEDPSQEDLCSVVQSGESEEEEEQDTLELELVLERKKAELRALEEGDGSVSGSSPRSDISQPASQDGMRRLMSKRGKWKMFVRATSPESTSRSSSKTGRDTPENGETAIGAENSEKIDENSDKEMEVEESPEKIKVQTTPKVEEEQDLKFQIGELANTLTSKFEFLGINRQSISNFHVLLLQTETRIADWREGALNGNYLKRKLQDAAEQLKQYEINATPKGWSCHWDRDHRRYFYVNEQSGESQWEFPDGEEEEEESQAQENRDETLAKQTLKDKTGTDSNSTESSETSTGSLCKESFSGQVSSSSLMPLTPFWTLLQSNVPVLQPPLPLEMPPPPPPPPESPPPPPPPPPPAEDGEIQEVEMEDEGSEEPPAPGTEEDTPLKPSAQTTVVTSQSSVDSTISSSSSTKGIKRKATEISTAVVQRSATIGSSPVLYSQSAIATGHQAAGIGNQATGIGHQTIPVSLPAAGMGHQARGMSLQSNYLGLAAAPAIMSYAECSVPIGVTAPSLQPVQARGAVPTATIIEPPPPPPPPPPPPPPAPKMPPPEKTKKGRKDKAKKSKTKMPSLVKKWQSIQRELDEEDNSSSSEEDRESTAQKRIEEWKQQQLVSGMAERNANFEALPEDWRARLKRRKMAPNT
B3: ZC3H18 (protein, UniProt Q86VM9 1-953)
chain: MDVAESPERDPHSPEDEEQPQGLSDDDILRDSGSDQDLDGAGVRASDLEDEESAARGPSQEEEDNHSDEEDRASEPKSQDQDSEVNELSRGPTSSPCEEEGDEGEEDRTSDLRDEASSVTRELDEHELDYDEEVPEEPAPAVQEDEAEKAGAEDDEEKGEGTPREEGKAGVQSVGEKESLEAAKEKKKEDDDGEIDDGEIDDDDLEEGEVKDPSDRKVRPRPTCRFFMKGNCTWGMNCRFIHPGVNDKGNYSLITKADPFPPNGAPPLGPHPLMPANPWGGPVVDEILPPPPPEPPTESAWERGLRHAKEVLKKATIRKEQEPDFEEKRFTVTIGEDEREFDKENEVFRDWNSRIPRDVRDTVLEPYADPYYDYEIERFWRGGQYENFRVQYTETEPYHNYRERERERERENRQRERERERERDRERERRQRERERERERERDKERQRRKEEWERERAKRDEKDRQHRDRDREKEREKEKGKPKPRSPQPPSRQAEPPKKEAATTGPQVKRADEWKDPWRRSKSPKKKLGVSVSPSRARRRRKTSASSASASNSSRSSSRSSSYSGSGSSRSRSRSSSYSSYSSRSSRHSSFSGSRSRSRSFSSSPSPSPTPSPHRPSIRTKGEPAPPPGKAGEKSVKKPAPPPAPPQATKTTAPVPEPTKPGDPREARRKERPARTPPRRRTLSGSGSGSGSSYSGSSSRSRSLSVSSVSSVSSATSSSSSAHSVDSEDMYADLASPVSSASSRSPAPAQTRKEKGKSKKEDGVKEEKRKRDSSTQPPKSAKPPAGGKSSQQPSTPQQAPPGQPQQGTFVAHKEIKLTLLNKAADKGSRKRYEPSDKDRQSPPPAKRPNTSPDRGSRDRKSGGRLGSPKPERQRGQNSKAPAAPADRKRQLSPQSKSSSKVTSVPGKASDPGAASTKSGKASTLSRREELLKQLKAVEDAIARKRAKIPGKA
B4: PCCB (protein, UniProt P05166 29-539)
chain: CSQATSVNERIENKRRTALLGGGQRRIDAQHKRGKLTARERISLLLDPGSFVESDMFVEHRCADFGMAADKNKFPGDSVVTGRGRINGRLVYVFSQDFTVFGGSLSGAHAQKICKIMDQAITVGAPVIGLNDSGGARIQEGVESLAGYADIFLRNVTASGVIPQISLIMGPCAGGAVYSPALTDFTFMVKDTSYLFITGPDVVKSVTNEDVTQEELGGAKTHTTMSGVAHRAFENDVDALCNLRDFFNYLPLSSQDPAPVRECHDPSDRLVPELDTIVPLESTKAYNMVDIIHSVVDEREFFEIMPNYAKNIIVGFARMNGRTVGIVGNQPKVASGCLDINSSVKGARFVRFCDAFNIPLITFVDVPGFLPGTAQEYGGIIRHGAKLLYAFAEATVPKVTVITRKAYGGAYDVMSSKHLCGDTNYAWPTAEIAVMGAKGAVEIIFKGHENVEAAQAEYIEKFANPFPAAVRGFVDDIIQPSSTRARICCDLDVLASKKVQRPWRKHANIPL
B5: AP3M1 (protein, UniProt Q9Y2T2 1-418)
chain: MIHSLFLINCSGDIFLEKHWKSVVSQSVCDYFFEAQEKAADVENVPPVISTPHHYLISIYRDKLFFVSVIQTEVPPLFVIEFLHRVADTFQDYFGECSEAAIKDNVVIVYELLEEMLDNGFPLATESNILKELIKPPTILRSVVNSITGSSNVGDTLPTGQLSNIPWRRAGVKYTNNEAYFDVVEEIDAIIDKSGSTVFAEIQGVIDACIKLSGMPDLSLSFMNPRLLDDVSFHPCIRFKRWESERVLSFIPPDGNFRLISYRVSSQNLVAIPVYVKHSISFKENSSCGRFDITIGPKQNMGKTIEGITVTVHMPKVVLNMNLTPTQGSYTFDPVTKVLTWDVGKITPQKLPSLKGLVNLQSGAPKPEENPSLNIQFKIQQLAISGLKVNRLDMYGEKYKPFKGVKYVTKAGKFQVRT
B6: LUC7L3 (protein, UniProt O95232 1-432)
chain: MISAAQLLDELMGRDRNLAPDEKRSNVRWDHESVCKYYLCGFCPAELFTNTRSDLGPCEKIHDENLRKQYEKSSRFMKVGYERDFLRYLQSLLAEVERRIRRGHARLALSQNQQSSGAAGPTGKNEEKIQVLTDKIDVLLQQIEELGSEGKVEEAQGMMKLVEQLKEERELLRSTTSTIESFAAQEKQMEVCEVCGAFLIVGDAQSRVDDHLMGKQHMGYAKIKATVEELKEKLRKRTEEPDRDERLKKEKQEREEREKEREREREERERKRRREEEEREKERARDRERRKRSRSRSRHSSRTSDRRCSRSRDHKRSRSRERRRSRSRDRRRSRSHDRSERKHRSRSRDRRRSKSRDRKSYKHRSKSRDREQDRKSKEKEKRGSDDKKSSVKSGSREKQSEDTNTESKESDTKNEVNGTSEDIKSEGDTQSN
B7: RNPS1 (protein, UniProt Q15287 1-305)
chain: MDLSGVKKKSLLGVKENNKKSSTRAPSPTKRKDRSDEKSKDRSKDKGATKESSEKDRGRDKTRKRRSASSGSSSTRSRSSSTSSSGSSTSTGSSSGSSSSSASSRSGSSSTSRSSSSSSSSGSPSPSRRRHDNRRRSRSKSKPPKRDEKERKRRSPSPKPTKVHIGRLTRNVTKDHIMEIFSTYGKIKMIDMPVERMHPHLSKGYAYVEFENPDEAEKALKHMDGGQIDGQEITATAVLAPWPRPPPRRFSPPRRMLPPPPMWRRSPPRMRRRSRSPRRRSPVRRRSRSPGRRRHRSRSSSNSSR
B8: VANGL1 (endogenous, found by TAP-MS) (protein, UniProt Q8TAA9 1-524)
chain: MDTESTYSGYSYYSSHSKKSHRQGERTRERHKSPRNKDGRGSEKSVTIQPPTGEPLLGNDSTRTEEVQDDNWGETTTAITGTSEHSISQEDIARISKDMEDSVGLDCKRYLGLTVASFLGLLVFLTPIAFILLPPILWRDELEPCGTICEGLFISMAFKLLILLIGTWALFFRKRRADMPRVFVFRALLLVLIFLFVVSYWLFYGVRILDSRDRNYQGIVQYAVSLVDALLFIHYLAIVLLELRQLQPMFTLQVVRSTDGESRFYSLGHLSIQRAALVVLENYYKDFTIYNPNLLTASKFRAAKHMAGLKVYNVDGPSNNATGQSRAMIAAAARRRDSSHNELYYEEAEHERRVKKRKARLVVAVEEAFIHIQRLQAEEQQKAPGEVMDPREAAQAIFPSMARALQKYLRITRQQNYHSMESILQHLAFCITNGMTPKAFLERYLSAGPTLQYDKDRWLSTQWRLVSDEAVTNGLRDGIVFVLKCLDFSLVVNVKKIPFIILSEEFIDPKSHKFVLRLQSETSV

Sequences of proteins named here, by UniProt entry; tags and fusion partners are left off.
UniProt Q9Y4B6: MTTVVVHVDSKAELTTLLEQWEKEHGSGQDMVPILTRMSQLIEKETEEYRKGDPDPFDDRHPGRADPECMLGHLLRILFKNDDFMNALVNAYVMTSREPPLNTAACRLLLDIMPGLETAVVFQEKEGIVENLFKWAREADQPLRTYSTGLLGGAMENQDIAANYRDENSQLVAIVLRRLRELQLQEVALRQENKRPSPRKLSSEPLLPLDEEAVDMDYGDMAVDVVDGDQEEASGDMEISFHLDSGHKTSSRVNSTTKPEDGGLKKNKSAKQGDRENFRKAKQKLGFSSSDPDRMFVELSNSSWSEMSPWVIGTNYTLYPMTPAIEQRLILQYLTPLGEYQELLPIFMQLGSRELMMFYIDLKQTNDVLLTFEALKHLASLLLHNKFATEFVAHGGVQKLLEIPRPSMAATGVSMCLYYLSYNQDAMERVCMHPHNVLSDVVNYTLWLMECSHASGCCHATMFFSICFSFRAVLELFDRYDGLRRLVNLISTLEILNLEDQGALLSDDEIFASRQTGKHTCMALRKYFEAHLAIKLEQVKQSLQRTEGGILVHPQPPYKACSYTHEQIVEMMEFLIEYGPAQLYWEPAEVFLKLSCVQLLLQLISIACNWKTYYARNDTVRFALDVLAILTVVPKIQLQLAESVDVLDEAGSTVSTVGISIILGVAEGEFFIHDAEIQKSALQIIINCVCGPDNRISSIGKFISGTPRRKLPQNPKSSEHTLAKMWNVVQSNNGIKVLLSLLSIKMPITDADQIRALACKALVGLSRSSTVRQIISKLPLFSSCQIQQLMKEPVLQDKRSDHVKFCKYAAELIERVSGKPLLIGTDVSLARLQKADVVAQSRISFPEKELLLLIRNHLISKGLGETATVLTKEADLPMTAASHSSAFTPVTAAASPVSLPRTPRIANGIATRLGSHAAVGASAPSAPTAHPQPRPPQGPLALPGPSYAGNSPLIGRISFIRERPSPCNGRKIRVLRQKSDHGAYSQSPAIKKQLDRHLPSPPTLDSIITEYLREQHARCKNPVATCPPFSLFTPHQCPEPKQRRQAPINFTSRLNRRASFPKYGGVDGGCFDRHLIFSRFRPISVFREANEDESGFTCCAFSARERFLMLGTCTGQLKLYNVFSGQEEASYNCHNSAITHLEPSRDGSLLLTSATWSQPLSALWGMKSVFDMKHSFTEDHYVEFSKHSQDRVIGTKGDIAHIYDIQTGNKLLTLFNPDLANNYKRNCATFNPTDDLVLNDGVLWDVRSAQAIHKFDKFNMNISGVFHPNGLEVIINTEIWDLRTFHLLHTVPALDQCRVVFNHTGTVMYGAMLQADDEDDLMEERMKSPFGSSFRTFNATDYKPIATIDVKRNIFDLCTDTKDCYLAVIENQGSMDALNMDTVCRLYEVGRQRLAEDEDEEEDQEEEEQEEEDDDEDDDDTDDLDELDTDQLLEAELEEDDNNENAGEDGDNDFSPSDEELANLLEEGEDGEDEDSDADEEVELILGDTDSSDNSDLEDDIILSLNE
UniProt Q9UJV9: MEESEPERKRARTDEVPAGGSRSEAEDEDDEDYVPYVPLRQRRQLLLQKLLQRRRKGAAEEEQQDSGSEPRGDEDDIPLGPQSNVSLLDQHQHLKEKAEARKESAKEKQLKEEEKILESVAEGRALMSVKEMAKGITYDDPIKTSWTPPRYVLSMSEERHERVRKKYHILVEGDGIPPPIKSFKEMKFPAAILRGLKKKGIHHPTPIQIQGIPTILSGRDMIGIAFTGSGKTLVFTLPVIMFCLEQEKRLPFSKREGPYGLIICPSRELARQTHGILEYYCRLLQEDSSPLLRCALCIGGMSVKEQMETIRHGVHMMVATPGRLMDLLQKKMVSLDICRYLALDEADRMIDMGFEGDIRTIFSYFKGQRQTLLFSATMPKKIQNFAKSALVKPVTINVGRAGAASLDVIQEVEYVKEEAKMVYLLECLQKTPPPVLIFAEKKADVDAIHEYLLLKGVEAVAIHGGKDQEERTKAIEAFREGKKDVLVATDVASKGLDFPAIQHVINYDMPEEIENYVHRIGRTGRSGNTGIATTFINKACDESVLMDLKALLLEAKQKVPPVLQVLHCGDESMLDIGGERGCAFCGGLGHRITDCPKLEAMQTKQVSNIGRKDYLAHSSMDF
UniProt O14646: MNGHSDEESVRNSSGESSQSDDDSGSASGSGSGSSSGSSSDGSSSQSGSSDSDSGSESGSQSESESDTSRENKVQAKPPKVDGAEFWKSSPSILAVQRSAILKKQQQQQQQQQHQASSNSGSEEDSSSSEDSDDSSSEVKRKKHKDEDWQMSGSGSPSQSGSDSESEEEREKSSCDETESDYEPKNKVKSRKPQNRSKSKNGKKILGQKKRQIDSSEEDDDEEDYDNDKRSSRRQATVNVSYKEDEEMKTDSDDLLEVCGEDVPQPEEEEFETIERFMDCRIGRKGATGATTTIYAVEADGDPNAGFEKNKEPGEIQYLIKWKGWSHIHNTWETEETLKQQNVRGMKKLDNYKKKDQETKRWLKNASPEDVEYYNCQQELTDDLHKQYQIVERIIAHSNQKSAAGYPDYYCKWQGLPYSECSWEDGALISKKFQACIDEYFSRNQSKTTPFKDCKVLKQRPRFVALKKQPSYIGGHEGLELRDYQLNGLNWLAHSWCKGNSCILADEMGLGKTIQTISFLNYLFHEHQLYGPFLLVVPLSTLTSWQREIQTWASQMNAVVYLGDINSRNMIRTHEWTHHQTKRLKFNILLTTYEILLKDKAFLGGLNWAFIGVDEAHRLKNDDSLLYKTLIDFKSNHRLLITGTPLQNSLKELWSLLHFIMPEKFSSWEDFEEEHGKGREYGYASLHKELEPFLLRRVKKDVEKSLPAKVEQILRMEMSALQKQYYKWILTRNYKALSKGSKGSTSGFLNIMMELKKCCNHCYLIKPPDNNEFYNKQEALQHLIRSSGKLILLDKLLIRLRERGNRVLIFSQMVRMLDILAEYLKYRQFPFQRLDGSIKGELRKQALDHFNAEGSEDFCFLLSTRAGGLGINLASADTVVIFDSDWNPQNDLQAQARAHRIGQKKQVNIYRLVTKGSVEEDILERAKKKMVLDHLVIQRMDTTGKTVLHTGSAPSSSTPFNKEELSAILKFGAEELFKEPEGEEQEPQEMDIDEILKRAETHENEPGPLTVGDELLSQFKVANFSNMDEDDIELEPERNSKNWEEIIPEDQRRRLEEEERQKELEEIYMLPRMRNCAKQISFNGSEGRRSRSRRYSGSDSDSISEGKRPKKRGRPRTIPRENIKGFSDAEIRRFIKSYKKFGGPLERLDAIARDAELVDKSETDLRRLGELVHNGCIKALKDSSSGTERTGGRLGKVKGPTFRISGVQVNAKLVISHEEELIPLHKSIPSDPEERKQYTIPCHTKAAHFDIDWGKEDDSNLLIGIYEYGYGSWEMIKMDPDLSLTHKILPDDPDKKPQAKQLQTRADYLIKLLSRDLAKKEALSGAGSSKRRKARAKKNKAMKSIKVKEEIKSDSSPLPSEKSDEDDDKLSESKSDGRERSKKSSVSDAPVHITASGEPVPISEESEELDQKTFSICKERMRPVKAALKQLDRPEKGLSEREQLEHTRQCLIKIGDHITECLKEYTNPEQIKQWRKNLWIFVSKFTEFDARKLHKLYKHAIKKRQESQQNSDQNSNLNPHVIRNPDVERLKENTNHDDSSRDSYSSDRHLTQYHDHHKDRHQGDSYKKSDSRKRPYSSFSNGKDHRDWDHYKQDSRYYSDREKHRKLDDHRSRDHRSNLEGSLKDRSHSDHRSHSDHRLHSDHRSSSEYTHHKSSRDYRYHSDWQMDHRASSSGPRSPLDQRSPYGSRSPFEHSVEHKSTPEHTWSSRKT
UniProt Q9HCM4: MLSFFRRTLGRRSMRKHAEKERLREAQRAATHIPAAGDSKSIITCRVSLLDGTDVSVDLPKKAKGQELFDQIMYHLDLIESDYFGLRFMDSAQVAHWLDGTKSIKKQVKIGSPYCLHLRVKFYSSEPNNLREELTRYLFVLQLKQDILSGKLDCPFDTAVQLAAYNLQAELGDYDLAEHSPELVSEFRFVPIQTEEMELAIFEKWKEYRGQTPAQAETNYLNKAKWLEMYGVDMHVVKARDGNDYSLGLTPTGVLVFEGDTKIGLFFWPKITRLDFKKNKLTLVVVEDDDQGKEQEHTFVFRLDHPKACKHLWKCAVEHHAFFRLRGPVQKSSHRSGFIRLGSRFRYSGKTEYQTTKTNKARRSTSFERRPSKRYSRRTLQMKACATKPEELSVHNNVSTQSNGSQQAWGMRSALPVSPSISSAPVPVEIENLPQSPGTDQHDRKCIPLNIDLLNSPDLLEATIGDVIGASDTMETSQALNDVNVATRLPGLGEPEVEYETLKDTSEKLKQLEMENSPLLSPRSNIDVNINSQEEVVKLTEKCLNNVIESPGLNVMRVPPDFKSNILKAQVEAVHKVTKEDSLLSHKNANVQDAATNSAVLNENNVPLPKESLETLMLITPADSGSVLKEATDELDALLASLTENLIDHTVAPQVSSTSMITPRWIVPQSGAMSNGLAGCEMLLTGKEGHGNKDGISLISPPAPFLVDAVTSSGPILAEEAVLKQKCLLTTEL
UniProt Q14978: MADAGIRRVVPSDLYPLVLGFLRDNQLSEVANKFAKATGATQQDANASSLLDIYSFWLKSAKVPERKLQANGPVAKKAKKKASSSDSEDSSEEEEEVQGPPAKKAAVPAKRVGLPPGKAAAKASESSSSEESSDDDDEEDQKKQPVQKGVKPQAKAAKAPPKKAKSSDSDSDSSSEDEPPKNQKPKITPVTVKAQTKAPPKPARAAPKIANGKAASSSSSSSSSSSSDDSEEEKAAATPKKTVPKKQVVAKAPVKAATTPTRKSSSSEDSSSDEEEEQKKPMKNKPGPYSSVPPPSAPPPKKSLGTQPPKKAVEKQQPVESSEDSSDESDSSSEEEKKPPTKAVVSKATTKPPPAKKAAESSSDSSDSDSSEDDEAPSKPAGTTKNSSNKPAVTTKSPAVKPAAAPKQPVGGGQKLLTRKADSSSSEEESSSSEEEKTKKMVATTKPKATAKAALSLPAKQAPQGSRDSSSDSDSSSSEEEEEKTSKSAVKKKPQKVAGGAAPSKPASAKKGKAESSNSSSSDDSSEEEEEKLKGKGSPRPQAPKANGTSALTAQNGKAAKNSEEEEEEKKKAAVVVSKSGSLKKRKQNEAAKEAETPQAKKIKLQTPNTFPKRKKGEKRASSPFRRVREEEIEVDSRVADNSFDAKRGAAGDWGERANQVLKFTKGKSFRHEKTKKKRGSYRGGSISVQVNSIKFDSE

These molecules were tested against SFB-tagged NF2 (human) (UniProt P35240) (assay: affinity purification with mass spectrometry; HEK293A cells stably expressing the SFB-tagged bait, lysed in NETN buffer; streptavidin beads, biotin elution, then S protein beads; LC-MS/MS).
For DCAF1 (from UniProt Q9Y4B6 1-1507), the binding was “binds”. For DDX41 (from UniProt Q9UJV9 1-622), the binding was “binds”. In the case of CHD1 (from UniProt O14646 1-1710), the binding is reported as “binds”. With EPB41L5 (from UniProt Q9HCM4 1-733) the binding was “binds”. In the case of NOLC1 (from UniProt Q14978 1-699), the binding is reported as “binds”. B1 was tested, and the binding was “binds”. B2 was tested, and the binding was “binds”. In the case of B3, the binding is reported as “binds”. With B4 the binding was “binds”. With B5 the binding was “binds”. With B6 the binding was “binds”. For B7, the binding was “binds”. B8 was tested, and the binding was “binds”.
